Molecular target: the molecule itself
Experiment: dynamic light scattering in PBS

B1: Nhead recombinant protein (AtaA59-325-GCN4pII-His) (other)
chain: MATVQVGGGTNSGTTATASTNCADLYNYQNPENSGSGAAGNYNAGNPSVCSIAIGENAQGGTSGTGGSPGIAIGGNSKATGGLSVAIGGYAQATNVGSIALGTAALSSGFNSLAISRQAAATNNYSIAIGTTSVSKGVGSIAMGHSTNASGDQSIAIGSSDAVNSATATTTYDGTTNTQASGSKSIAIGASAKASTNNSIALGAGSVTSAQSGNSYLTGVGASATNGVVSVGTSTATRRIQNVADGSAASDAVTVAQLDKAYDDTNGRMKQIEDKIEEILSKIYHIENEIARIKKLIKLHHHHHH
notes: Made in E. coli BL21 star (DE3) and purified; The construct was designed to form a homotrimer through the GCN4pII tag; The oligomeric state of the purified protein is not measured in the text; also called E. coli recombinant Nhead; recombinant Nhead
binding result: no binding (tested: 0.2 mg/ml)

From US20220259268A1 (NATIONAL UNIVERSITY CORPORATION TOKAI NATIONAL HIGHER …, published 2022)
